# Assay results from patent US11040085B2, “Pharmaceutical composition containing F1 polypeptide and/or F3 polypeptide and use thereof” (priority 2016, dated 2021).
# Tested on: TC-1 cells
# Test: Interaction of FITC-labeled polypeptide with TC-1 cell (flow cytometry, confocal microscopy)
# Assay type: cell-based, mouse
# Procedure: The separated protein was digested by trypsin, polypeptides produced from the digestion was labeled by iTRAQ 4-plex reagents, and the labeled polypeptides were quantitatively analyzed by using a system combining a nano high performance liquid chromatography and a triple time of flight mass spectrometer. […] Besides, the F3 polypeptide and a control polypeptide P3 were labeled by fluorescent dye fluorescein isothiocyanate (FITC), incubated together with TC-1 cells for different periods, and repeatedly washed, thereafter a fluorescence intensity of FITC in the TC-1 cell was detected by a flow cytometry (FIG. 5A).
# 1000 μL of 5×10^5 TC-1 cells cultured in a RPMI medium containing 10% of calf serum were added into a 24-well cell culture plate, 2 μg/mL of the F3 polypeptide labeled by FITC was added into the cells being incubated, cells at different time points of the incubation were collected and washed with PBS buffer solution, and then the relationship between the F3 polypeptide and TC-1 cell was observed by a flow cytometer (FIG. 5A) or a confocal microscopy (FIG. 5B).
substance,measurement,setting,value
"F3 polypeptide: polypeptide of SEQ ID NO: 2, sequence found in tree frog secretion, made by solid phase peptide synthesis; Caerin polypeptide (GLFGVLGSIAKHLLPHVVPVIAEKL; the sequence is synthesized)",combination with the TC-1 cell,"2 μg/mL FITC-labeled polypeptide (FIG. 5A, 5B)",can be combined with the TC-1 cell
same,location in the TC-1 cell,"confocal microscopy, incubated together for 1 hour (FIG. 5B)",penetrated through the cytomembrane of the TC-1 cell and distributed non-uniformly in the cytoplasm
